The text below walks through data of publication PMC3834829, “A signature motif mediating selective interactions of BCL11A with the NR2E/F subfamily of orphan nuclear receptors” (Nucleic Acids Research, 2013).

Protein sequences, listed by entry. Tags and fused reporters are not part of them. Lines headed by an entry give the natural chain unless they say otherwise; changes in a name come on top.
UniProt Q15406: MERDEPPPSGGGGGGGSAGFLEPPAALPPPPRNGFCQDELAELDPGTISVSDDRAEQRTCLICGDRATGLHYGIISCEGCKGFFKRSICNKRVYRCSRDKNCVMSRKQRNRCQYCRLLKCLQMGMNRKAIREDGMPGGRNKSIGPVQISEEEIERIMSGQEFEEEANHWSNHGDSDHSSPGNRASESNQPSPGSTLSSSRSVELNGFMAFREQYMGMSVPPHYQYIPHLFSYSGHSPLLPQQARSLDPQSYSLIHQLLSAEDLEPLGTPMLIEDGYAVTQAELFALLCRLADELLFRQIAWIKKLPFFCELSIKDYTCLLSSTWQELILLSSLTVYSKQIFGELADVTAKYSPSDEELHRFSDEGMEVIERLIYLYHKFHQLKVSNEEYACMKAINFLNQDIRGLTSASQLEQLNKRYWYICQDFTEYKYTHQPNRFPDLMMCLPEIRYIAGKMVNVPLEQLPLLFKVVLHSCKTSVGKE
UniProt O00482: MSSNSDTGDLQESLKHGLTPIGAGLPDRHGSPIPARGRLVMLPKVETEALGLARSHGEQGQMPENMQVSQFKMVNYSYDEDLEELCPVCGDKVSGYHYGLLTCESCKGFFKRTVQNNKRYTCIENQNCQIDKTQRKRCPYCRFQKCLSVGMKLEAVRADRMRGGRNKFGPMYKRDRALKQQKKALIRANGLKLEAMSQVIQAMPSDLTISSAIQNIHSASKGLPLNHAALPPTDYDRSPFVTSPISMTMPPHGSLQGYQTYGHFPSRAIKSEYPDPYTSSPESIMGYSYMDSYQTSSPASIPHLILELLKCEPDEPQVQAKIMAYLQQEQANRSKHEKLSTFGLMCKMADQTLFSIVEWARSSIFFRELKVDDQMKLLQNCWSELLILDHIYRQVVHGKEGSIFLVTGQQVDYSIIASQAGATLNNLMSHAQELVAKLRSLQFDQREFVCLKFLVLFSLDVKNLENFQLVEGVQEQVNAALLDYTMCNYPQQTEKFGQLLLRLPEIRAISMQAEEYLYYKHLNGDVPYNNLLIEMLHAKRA
UniProt P35398: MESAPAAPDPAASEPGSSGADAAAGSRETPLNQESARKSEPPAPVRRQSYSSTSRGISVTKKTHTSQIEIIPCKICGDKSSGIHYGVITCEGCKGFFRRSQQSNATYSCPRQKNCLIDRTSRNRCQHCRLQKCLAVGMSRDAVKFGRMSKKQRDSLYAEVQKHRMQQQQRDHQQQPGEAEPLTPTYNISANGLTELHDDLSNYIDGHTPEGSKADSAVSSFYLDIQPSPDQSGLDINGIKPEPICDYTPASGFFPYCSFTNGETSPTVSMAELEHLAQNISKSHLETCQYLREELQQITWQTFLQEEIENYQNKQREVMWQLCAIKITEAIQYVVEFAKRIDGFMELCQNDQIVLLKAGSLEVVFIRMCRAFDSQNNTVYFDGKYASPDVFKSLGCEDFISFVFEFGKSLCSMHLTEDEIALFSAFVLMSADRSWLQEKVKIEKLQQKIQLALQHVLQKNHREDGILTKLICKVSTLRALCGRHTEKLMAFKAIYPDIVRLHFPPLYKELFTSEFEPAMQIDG
UniProt Q92753: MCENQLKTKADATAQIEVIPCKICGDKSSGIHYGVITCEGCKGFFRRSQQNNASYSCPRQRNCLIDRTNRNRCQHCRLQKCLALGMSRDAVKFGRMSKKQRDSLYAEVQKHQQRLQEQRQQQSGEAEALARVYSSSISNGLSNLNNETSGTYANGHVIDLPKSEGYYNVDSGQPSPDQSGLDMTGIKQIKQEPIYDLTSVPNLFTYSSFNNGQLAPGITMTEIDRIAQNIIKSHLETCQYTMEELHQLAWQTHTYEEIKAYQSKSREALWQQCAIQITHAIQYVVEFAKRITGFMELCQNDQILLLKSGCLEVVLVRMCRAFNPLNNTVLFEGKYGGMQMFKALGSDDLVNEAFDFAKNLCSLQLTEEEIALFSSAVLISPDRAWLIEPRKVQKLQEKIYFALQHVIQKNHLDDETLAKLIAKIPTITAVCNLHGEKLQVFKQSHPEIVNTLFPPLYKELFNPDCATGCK
UniProt P10828: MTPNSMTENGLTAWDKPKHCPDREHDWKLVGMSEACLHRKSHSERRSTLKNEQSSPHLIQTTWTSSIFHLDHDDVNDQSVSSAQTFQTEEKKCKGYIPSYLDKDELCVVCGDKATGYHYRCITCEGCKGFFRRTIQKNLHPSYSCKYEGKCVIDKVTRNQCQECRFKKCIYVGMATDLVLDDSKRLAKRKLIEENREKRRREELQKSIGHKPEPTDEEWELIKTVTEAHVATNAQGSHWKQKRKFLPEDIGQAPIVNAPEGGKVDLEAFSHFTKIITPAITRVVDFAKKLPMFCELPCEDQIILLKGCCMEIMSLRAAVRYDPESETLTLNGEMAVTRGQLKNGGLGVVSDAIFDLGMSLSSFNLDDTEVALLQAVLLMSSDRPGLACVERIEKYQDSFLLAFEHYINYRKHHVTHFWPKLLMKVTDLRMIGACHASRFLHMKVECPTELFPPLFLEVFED

These are yes or no findings as the source states them, for the method shown. For part of these data: A result given as binding can be weak or reduced; the word gives no strength.

The target of one assay is T1, LexA-BCL11A RID2 G662A (UniProt Q9H165).
T1 sequence: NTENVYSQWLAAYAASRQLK
As to the kind of experiment: two-hybrid; S. cerevisiae L40; LexA DBD fusion with VP16 AAD-NR fusion; β-galactosidase activity in cell-free extracts; vehicle only or no ligand.

The target of the next assay is T2, LexA-BCL11A RID2 L660A (UniProt Q9H165).
T2 sequence: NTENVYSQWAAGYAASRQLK
Described as above.

For a further assay, the target named is T3, LexA-BCL11A RID2 Q658A (UniProt Q9H165).
T3 sequence: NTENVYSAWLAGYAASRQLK
The description is as above.

The target in another assay is T4, LexA-BCL11A RID2 S657A (UniProt Q9H165).
T4 sequence: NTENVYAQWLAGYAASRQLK
The assay is described as above.

A further assay deals with T5, LexA-BCL11A RID2 V655A (UniProt Q9H165).
T5 sequence: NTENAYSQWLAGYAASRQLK
Described as above.

For the next assay, the target named is T6, LexA-BCL11A RID2 W659A (UniProt Q9H165).
T6 sequence: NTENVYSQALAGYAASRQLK
The assay is described as above.

The target of another assay is T7, LexA-BCL11A RID2 Y656A (UniProt Q9H165).
T7 sequence: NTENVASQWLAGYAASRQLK
The description is as above.

For a further assay, the target named is T8, LexA-BCL11A RID2 Y663A (UniProt Q9H165).
T8 sequence: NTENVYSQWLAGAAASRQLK
The assay is described as above.

The target in assay [1] is T9, LexA-BCL11A-(310–325) (UniProt Q9H165).
T9 sequence: PPAMDFSRRLRELAGN
Described as above.

The target in assay [2] is T10, LexA-BCL11A-(651–670) (UniProt Q9H165).
T10 sequence: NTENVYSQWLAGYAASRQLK
The description is as above.

For assay [3], the target named is T9, LexA-BCL11A-(310–325). Description: two-hybrid; S. cerevisiae L40; LexA DBD fusion with VP16 AAD-NR fusion; β-galactosidase activity in cell-free extracts; 10^-6 M cognate ligand added.
The target in assay [4] is T10, LexA-BCL11A-(651–670). The description is as above.
The target in assay [5] is LexA-NSD1-(790–818). As to the kind of experiment: two-hybrid; S. cerevisiae L40; LexA DBD fusion with VP16 AAD-NR fusion; β-galactosidase activity in cell-free extracts; vehicle only or no ligand.
The target of assay [6] is LexA-NSD1-(790–818). As to the kind of experiment: two-hybrid; S. cerevisiae L40; LexA DBD fusion with VP16 AAD-NR fusion; β-galactosidase activity in cell-free extracts; 10^-6 M cognate ligand added.

For the molecule “AAD-COUP-TFI-LBD-(151–467) (domain or fragment)”, the binding entry with LexA-BCL11A RID2 G662A is recorded as “binds”; with LexA-BCL11A RID2 L660A, “no binding”; with LexA-BCL11A RID2 Q658A, “binds”; with LexA-BCL11A RID2 S657A, “no binding”; in the assay with LexA-BCL11A RID2 V655A, “no binding”; with LexA-BCL11A RID2 W659A, “no binding”. Further, the binding entry with LexA-BCL11A RID2 Y656A is “no binding”; with LexA-BCL11A RID2 Y663A it was “no binding”; with LexA-BCL11A-(310–325) [1], “binds”; with LexA-BCL11A-(651–670) [2], “binds”.
As to “AAD-GCNF-LBD-(138–475) (from UniProt Q15406) (domain or fragment)”, the binding entry with LexA-BCL11A-(310–325) [1] and in the assay with LexA-BCL11A-(651–670) [2] was “no binding” each time.
With “AAD-LRH-1-LBD-(133–495) (from UniProt O00482) (domain or fragment)”, the binding entry with LexA-BCL11A-(310–325) [1] and with LexA-BCL11A-(651–670) [2] was “no binding” in each case.
Regarding “AAD-PPARγ-LBD-(173–475) (domain or fragment)”, the binding entry in the assay with LexA-BCL11A-(310–325) [3] and with LexA-BCL11A-(651–670) [4] was “no binding” in each case.
“AAD-RORα-LBD-(106–469) (from UniProt P35398) (domain or fragment)”: the binding entry with LexA-BCL11A-(310–325) [1] and with LexA-BCL11A-(651–670) [2] was “no binding” each time.
In the case of “AAD-RORβ-LBD-(98–459) (from UniProt Q92753) (domain or fragment)”, the binding entry with LexA-BCL11A-(310–325) [1] and with LexA-BCL11A-(651–670) [2] was “no binding” in each case.
For the molecule “AAD-TRβ-LBD-(169–456) (from UniProt P10828) (domain or fragment)”, the binding entry in the assay with LexA-BCL11A-(310–325) [3] and with LexA-BCL11A-(651–670) [4] was “no binding” each time.

B1: AAD-EAR2-LBD-(121–399) (domain or fragment, UniProt P10588 121-399)
chain: MRKEAVQRGRIPHSLPGAVAASSGSPPGSALAAVASGGDLFPGQPVSELIAQLLRAEPYPAAAGRFGAGGGAAGAVLGIDNVCELAARLLFSTVEWARHAPFFPELPVADQVALLRLSWSELFVLNAAQAALPLHTAPLLAAAGLHAAPMAAERAVAFMDQVRAFQEQVDKLGRLQVDSAEYGCLKAIALFTPDACGLSDPAHVESLQEKAQVALTEYVRAQYPSQPQRFGRLLLRLPALRAVPASLISQLFFMRLVGKTPIETLIRDMLLSGSTFNWP
B1: the binding entry with LexA-NSD1-(790–818) [5] is “binds”.

B2: AAD-ERRα-LBD-(169–423) (domain or fragment, UniProt P11474 169-423)
chain: PLPFPGPFPAGPLAVAGGPRKTAAPVNALVSHLLVVEPEKLYAMPDPAGPDGHLPAVATLCDLFDREIVVTISWAKSIPGFSSLSLSDQMSVLQSVWMEVLVLGVAQRSLPLQDELAFAEDLVLDEEGARAAGLGELGAALLQLVRRLQALRLEREEYVLLKALALANSDSVHIEDAEAVEQLREALHEALLEYEAGRAGPGGGAERRRAGRLLLTLPLLRQTAGKVLAHFYGVKLEGKVPMHKLFLEMLEAMMD
Turning to B2, the binding result in the assay with LexA-NSD1-(790–818) [5] is reported as “binds”.

B3: AAD-HNF4γ-LBD-(88–408) (domain or fragment, UniProt Q14541 88-408)
chain: RISTRRSTFDGSNIPSINTLAQAEVRSRQISVSSPGSSTDINVKKIASIGDVCESMKQQLLVLVEWAKYIPAFCELPLDDQVALLRAHAGEHLLLGATKRSMMYKDILLLGNNYVIHRNSCEVEISRVANRVLDELVRPFQEIQIDDNEYACLKAIVFFDPDAKGLSDPVKIKNMRFQVQIGLEDYINDRQYDSRGRFGELLLLLPTLQSITWQMIEQIQFVKLFGMVKIDNLLQEMLLGGASNDGSHLHHPMHPHLSQDPLTGQTILLGPMSTLVHADQISTPETPLPSPPQGSGQEQYKIAANQASVISHQHLSKQKQL
Take B3: the binding entry in the assay with LexA-NSD1-(790–818) [5] was “binds”.

B4: AAD-COUP-TFII-LBD-(144–414) (domain or fragment, UniProt P24468 144-414)
chain: MRREAVQRGRMPPTQPTHGQFALTNGDPLNCHSYLSGYISLLLRAEPYPTSRFGSQCMQPNNIMGIENICELAARMLFSAVEWARNIPFFPDLQITDQVALLRLTWSELFVLNAAQCSMPLHVAPLLAAAGLHASPMSADRVVAFMDHIRIFQEQVEKLKALHVDSAEYSCLKAIVLFTSDACGLSDVAHVESLQEKSQCALEEYVRSQYPNQPTRFGKLLLRLPSLRTVSSSVIEQLFFVRLVGKTPIETLIRDMLLSGSSFNWPYMAIQ
Consider B4, for which the binding entry with LexA-NSD1-(790–818) [5] is given as “binds”.

B5: AAD-VDR-LBD-(123–426) (domain or fragment, UniProt P11473 123-426)
chain: KLSEEQQRIIAILLDAHHKTYDPTYSDFCQFRPPVRVNDGGGSHPSRPNSRHTPSFSGDSSSSCSDHCITSSDMMDSSSFSNLDLSEEDSDDPSVTLELSQLSMLPHLADLVSYSIQKVIGFAKMIPGFRDLTSEDQIVLLKSSAIEVIMLRSNESFTMDDMSWTCGNQDYKYRVSDVTKAGHSLELIEPLIKFQVGLKKLNLHEEEHVLLMAICIVSPDRPGVQDAALIEAIQDRLSNTLQTYIRCRHPPPGSHLLYAKMIQKLADLRSLNEEHSKQYRCLSFQPECSMKLTPLVLEVFGNEI
In the case of B5, in the assay with LexA-NSD1-(790–818) [6], the binding entry is reported as “binds”.
